This is an account of results in article PMC10104862.

By UniProt entry, the sequences of proteins in these tests, tags left out.
UniProt Q15554: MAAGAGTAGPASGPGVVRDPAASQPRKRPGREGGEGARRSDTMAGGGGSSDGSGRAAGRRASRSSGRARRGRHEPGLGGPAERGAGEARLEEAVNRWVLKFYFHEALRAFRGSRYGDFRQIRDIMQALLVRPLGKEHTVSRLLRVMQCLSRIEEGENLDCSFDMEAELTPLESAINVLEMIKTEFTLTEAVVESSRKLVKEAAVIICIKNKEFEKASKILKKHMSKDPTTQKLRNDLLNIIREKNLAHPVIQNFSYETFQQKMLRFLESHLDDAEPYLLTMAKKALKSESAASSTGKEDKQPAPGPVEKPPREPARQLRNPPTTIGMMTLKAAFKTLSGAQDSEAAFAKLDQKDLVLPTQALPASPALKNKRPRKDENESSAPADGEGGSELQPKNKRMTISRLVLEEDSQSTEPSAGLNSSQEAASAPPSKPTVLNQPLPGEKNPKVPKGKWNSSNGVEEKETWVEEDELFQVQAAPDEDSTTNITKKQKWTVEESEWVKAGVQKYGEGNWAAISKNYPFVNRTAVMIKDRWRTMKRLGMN

This assay deals with Flag-TRF2 (Telomeric repeat-binding factor 2), wild type (not stated (human or mouse cDNA cloned)) (UniProt Q15554). Nature of the assay: co-IP; 293T or U2OS cells co-transfected with epitope-tagged cDNAs, lysed 48 h later in BCO 300 buffer (20 mM HEPES pH 7.5, 10% glycerol, 1 mM EDTA, 0.1% NP-40); Flag M2 affinity gel; SDS-PAGE and blot.

Results are given in words; binding and its absence hold for the method and conditions named. Binding seen in cells or lysates may run through a third protein. Some results given as binding are weak or reduced against the parent protein; the word gives no strength. Sequences can lack the tags named with a protein.

B1: HA-DDX21, wild type (protein, UniProt Q9NR30 1-783)
chain: MPGKLRSDAGLESDTAMKKGETLRKQTEEKEKKEKPKSDKTEEIAEEEETVFPKAKQVKKKAEPSEVDMNSPKSKKAKKKEEPSQNDISPKTKSLRKKKEPIEKKVVSSKTKKVTKNEEPSEEEIDAPKPKKMKKEKEMNGETREKSPKLKNGFPHPEPDCNPSEAASEESNSEIEQEIPVEQKEGAFSNFPISEETIKLLKGRGVTFLFPIQAKTFHHVYSGKDLIAQARTGTGKTFSFAIPLIEKLHGELQDRKRGRAPQVLVLAPTRELANQVSKDFSDITKKLSVACFYGGTPYGGQFERMRNGIDILVGTPGRIKDHIQNGKLDLTKLKHVVLDEVDQMLDMGFADQVEEILSVAYKKDSEDNPQTLLFSATCPHWVFNVAKKYMKSTYEQVDLIGKKTQKTAITVEHLAIKCHWTQRAAVIGDVIRVYSGHQGRTIIFCETKKEAQELSQNSAIKQDAQSLHGDIPQKQREITLKGFRNGSFGVLVATNVAARGLDIPEVDLVIQSSPPKDVESYIHRSGRTGRAGRTGVCICFYQHKEEYQLVQVEQKAGIKFKRIGVPSATEIIKASSKDAIRLLDSVPPTAISHFKQSAEKLIEEKGAVEALAAALAHISGATSVDQRSLINSNVGFVTMILQCSIEMPNISYAWKELKEQLGEEIDSKVKGMVFLKGKLGVCFDVPTASVTEIQEKWHDSRRWQLSVATEQPELEGPREGYGGFRGQREGSRGFRGQRDGNRRFRGQREGSRGPRGQRSGGGNKSNRSQNKGQKRSFSKAFGQ
Consider B1, for which the binding result is recorded as “binds”.
